Results reported in PubChem BioAssay AID2551 (National Center for Advancing Translational Sciences (NCATS), 2010).
The whole screen tested about 310,000 compounds, of which about 17,000 (5.5%) were called active. The shares of active, inactive and inconclusive entries below differ from those in the screen. Calls come from the whole dose curve; as a rule, active = well fitted inhibition curve with a large enough effect; inconclusive = small, poorly fitted or top-dose-only effect, or effect the other way; inactive = no such curve, though single readings can be large or run the other way. Where the call is inconclusive, the potency comes from a doubtful curve fit.

The chains behind the UniProt entries cited, without tags or fusion partners. Where a name states a change or a piece, a line headed by the entry shows the natural chain unless it says otherwise.
UniProt P51450: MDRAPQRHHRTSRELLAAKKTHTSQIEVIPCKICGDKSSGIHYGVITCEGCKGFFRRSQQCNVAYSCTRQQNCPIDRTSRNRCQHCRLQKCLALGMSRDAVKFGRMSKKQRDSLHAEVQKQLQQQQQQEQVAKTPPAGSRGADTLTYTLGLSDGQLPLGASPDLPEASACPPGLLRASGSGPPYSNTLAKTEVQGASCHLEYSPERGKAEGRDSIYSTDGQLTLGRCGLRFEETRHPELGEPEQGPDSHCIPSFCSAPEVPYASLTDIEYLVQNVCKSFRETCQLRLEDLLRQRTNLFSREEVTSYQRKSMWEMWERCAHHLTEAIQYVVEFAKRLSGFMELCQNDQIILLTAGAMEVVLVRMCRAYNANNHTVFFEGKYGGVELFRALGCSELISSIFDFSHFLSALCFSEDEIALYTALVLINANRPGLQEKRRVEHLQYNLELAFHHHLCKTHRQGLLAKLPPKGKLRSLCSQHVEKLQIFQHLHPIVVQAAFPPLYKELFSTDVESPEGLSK

Biological target: Nuclear receptor ROR-gamma (Mus musculus) (UniProt P51450)
Assay: qHTS for inhibitors of ROR gamma transcriptional activity; note: nearly all actives have a fitted effect of over 60% in size
Details: Drosophila S2 Gal4-RORgamma UAS-luciferase reporter, 20 h; activity change, negative = inhibition: at 53.6 µM (top of the series)
Method in brief: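 In this cell-based reporter format, copper sulfate (700 uM final) drives Gal4–ROR gamma fusion expression from a metallothionein promoter in Drosophila Schneider cells; compounds preincubated 1 hr, reporter read after 20 hr at ambient temperature.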
% is set by controls: 0 for no effect and ±100 for the full control effect; potency is the fitted concentration of half-maximal effect.

SMILES	Potency	activity change, negative = inhibition
CCOc1ccc(N2C(=O)Nc3ccc(Br)cc3C2(O)C(=O)NCCCN(C)C)cc1 (centres undefined)	inactive	–
Cc1ccc(C=Nc2ccccc2C(N)=O)s1	inactive	–
CC1CCC2C(=O)N(c3ccc(NC4CCCCC4)c([N+](=O)[O-])c3)C(=O)C2C1 (centres undefined)	inconclusive: 20 µM [activator, partial curve, poor fit]	–
Cc1cc(CNC(=S)Nc2cccc(Cl)c2Cl)nn1C	inconclusive: 12.6 µM [activator, partial curve]	–
CC(=O)Nc1cccc(C(=O)/C=C/c2ccc(C)cc2)c1	active: 12.6 µM	–
Cc1ccc(-c2nc(CS(=O)(=O)CC(=O)N3CCc4ccccc4C3)c(C)o2)cc1	inconclusive: 14.1 µM [activator, partial curve, poor fit]	–
O=C(CSc1nc2scc(-c3ccco3)c2c(=O)n1-c1ccccc1)N1CCOCC1	inconclusive: 35.5 µM [inhibitor, single point]	–
Cc1ccccc1N/N=C/c1c(C)nc2ccccn12	active: 10 µM	–
CCCCOc1ccc(S(=O)(=O)NCc2csc(C)n2)cc1	–	inactive: -11.1% [at 0.365 µM]
Cc1ccc(Sc2c(C)nn(C(=O)C3CC3)c2C)cc1	inconclusive: 1.41 µM [activator, partial curve]	–
Cc1ccc(S(=O)(=O)Nc2nsc(N)n2)cc1	inconclusive: 17.8 µM [inhibitor, single point]	–
O=C(NC(=S)Nc1ccc(Cl)cc1Cl)C1CC1	active: 5.01 µM	–
COc1ccc(CCNC(=O)CSc2nnc(-c3ccc(F)cc3)c3ccccc23)cc1OC	inactive	–
CC(C)(C)C(=O)NC(n1cnc2c(N3CCOCC3)ncnc21)C(Cl)(Cl)Cl (centres undefined)	inconclusive: 17.8 µM [activator, single point]	–
O=[N+]([O-])c1ccc(N/N=C/c2cccnc2)cc1	inconclusive: 35.5 µM [activator, single point]	–
O=C(Nc1nccs1)c1cc(-c2ccccc2)nn1-c1ccccc1	inconclusive: 1.12 µM [inhibitor, partial curve]	–
Fc1ccc(-c2cc(C(F)(F)F)nc(-n3cc(Cl)cn3)n2)cc1	inactive	–
Cc1ccccc1NC1=C(Cl)C(=O)N(C2CCCCC2)C1=O	inactive	–
CCOC(=O)c1ccc(NC(=O)N2CCN(S(C)(=O)=O)CC2)cc1	–	inactive: 19.1% [at 0.365 µM]
Fc1ccccc1-c1nc(NCc2ccco2)c2ccccc2n1	inconclusive: 11.2 µM [activator, partial curve]	–
O=C(Nc1ccc2c(c1)Cc1ccccc1-2)c1ccncc1	inactive	–
COc1ccc(NC(=O)C2=CC(c3ccc(C)cc3)=NS(=O)(=O)N2C)cc1OC	inconclusive: 12.6 µM [activator, single point]	–
O=C(Nc1ccccc1)C1CC(=O)n2c(nc3ccccc32)N1 (centres undefined)	inactive	–
CC1(C)C(=O)OC(c2ccc([N+](=O)[O-])cc2)C(C)(C)C1=O (centres undefined)	inactive	–
COc1ccc(C=O)cc1CSc1nnc(COc2cccc3cccnc23)o1	inconclusive: 11.2 µM [activator, partial curve]	–

A stretch of the results above:
SMILES	Potency	activity change, negative = inhibition
COc1ccc(NC(=O)C2=CC(c3ccc(C)cc3)=NS(=O)(=O)N2C)cc1OC	inconclusive: 12.6 µM [activator, single point]	–
O=C(Nc1ccccc1)C1CC(=O)n2c(nc3ccccc32)N1 (centres undefined)	inactive	–

(next part)

SMILES	Potency	activity change, negative = inhibition
CCN(CC)CCCN=Cc1c(-c2ccccc2)[nH]n(-c2nc3ccccc3s2)c1=O	inconclusive: 11.2 µM [inhibitor, single point]	–
COC(=O)c1cccc(Cn2cc([N+](=O)[O-])cn2)c1	inactive	–
O=C(/C=C/Nc1ccc(Oc2ccccc2)cc1)c1ccco1	inactive	–
CC1=NN(c2ccc(Cl)cc2)C(=O)/C1=C\c1cccn1-c1ccc(S(N)(=O)=O)cc1	inconclusive: 12.6 µM [activator, partial curve]	–
COc1cccc(NC(=O)COC(=O)Cc2ccccc2[N+](=O)[O-])c1	inconclusive: 11.2 µM [activator, partial curve]	–
CC(=O)c1cccc(NC(=O)NC(C)c2ccc3c(c2)OCO3)c1 (centres undefined)	inactive	–
CCN(Cc1cc(=O)n2ccsc2n1)Cc1nc2ccccc2c(=O)[nH]1	active: 2.24 µM	–
Cn1cccc2[nH]c(=O)nc1-2	inactive	–
Cc1ccc(NC(=O)Cc2ccc(Cl)c(Cl)c2)cc1S(=O)(=O)N(C)C	inconclusive: 17.8 µM [activator, single point]	–
O=C1CC(SCc2nc3ccccc3[nH]2)C(=O)N1c1cccc(F)c1 (centres undefined)	active: 10 µM	–
O=[N+]([O-])c1ccc(Cc2ccncc2)cc1	inactive	–
COc1ccc2nc(Cl)c(C3CC(c4ccco4)=NN3C(=O)CCC(=O)O)cc2c1 (centres undefined)	inactive	–
Cc1cc(NC(=O)c2cc(-c3ccco3)on2)n(-c2ccccc2)n1	active: 7.94 µM	–
COc1ccc(S(=O)(=O)N2CCCCCC2)cc1N(C)S(=O)(=O)c1ccc(C)cc1	inconclusive: 12.6 µM [activator, partial curve]	–
Cn1c(=O)c2c(nc(NCC3CCCO3)n2Cc2cccc(Br)c2)n(C)c1=O (centres undefined)	inactive	–
S=c1[nH]nc(Nc2ccc(Cl)cc2)s1	inconclusive: 11.2 µM [inhibitor, partial curve]	–
CCCCCOC(=O)Cc1c(O)c2ccccc2n(C)c1=O	inconclusive: 15.8 µM [activator, single point]	–
COC(=O)c1cccc(NC(=O)Cn2nnc3ccccc32)c1	inconclusive: 0.251 µM [activator, full curve]	–
Cc1ccc(-c2cccc(C(=O)NCCc3ccccc3)n2)c2ccccc12	inactive	–
COc1ccc(N(CC(=O)NCc2ccc(F)cc2)C(=O)CCC(=O)Nc2nccs2)cc1	inactive	–
CCOc1ccc(-c2c(C(=O)N/N=C/c3ccc(C)o3)nnn2-c2nonc2N)cc1	active: 5.62 µM	–
CCCCCCCOc1ccc(C(=O)Nc2cccnc2)cc1	inconclusive: 7.94 µM [activator, partial curve, poor fit]	–
O=C(OCn1nnc2ccccc2c1=O)c1ccc(N2CCOCC2)c([N+](=O)[O-])c1	inconclusive: 35.5 µM [activator, single point]	–
Cc1ccc(CN(C(=O)CNC(=O)c2cccs2)C(C(=O)NCC2CCCO2)c2ccccc2)cc1 (centres undefined)	inconclusive: 2.51 µM [activator, single point]	–
